The values that follow come from paper PMC8225110, “The Divergent Key Residues of Two Agrobacterium fabrum (tumefaciens) CheY Paralogs Play a Key Role in Distinguishing Their Functions” (Microorganisms, 2021).

Amino acid sequences for entries named in this document (tags omitted). A change or cut given only in a name is not applied to a line headed by its entry.
UniProt Q7D1A8: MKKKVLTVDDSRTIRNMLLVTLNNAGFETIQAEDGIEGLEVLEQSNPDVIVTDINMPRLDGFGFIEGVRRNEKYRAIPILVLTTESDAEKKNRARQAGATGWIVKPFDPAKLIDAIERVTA
UniProt Q7D1A5: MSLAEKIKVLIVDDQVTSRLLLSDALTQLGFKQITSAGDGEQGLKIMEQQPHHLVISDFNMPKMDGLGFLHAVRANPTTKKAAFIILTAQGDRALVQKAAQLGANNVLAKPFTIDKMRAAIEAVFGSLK

Results are given in words; binding and its absence hold for the method and conditions named. Binding seen in cells or lysates may run through a third protein. Binding calls can cover weak binding; strength is not graded here. Sequences can lack the tags named with a protein.

The target in experiment [1] is T1, GST-FliM fusion protein (Agrobacterium fabrum C58, UniProt Q44457 1-321).
T1 construct: Flagellar motor switch protein FliM (atu0561) of Agrobacterium fabrum C58; Cloned in pGEX-4T-1; not shown: GST, N-terminal, kept
T1 sequence (looked up): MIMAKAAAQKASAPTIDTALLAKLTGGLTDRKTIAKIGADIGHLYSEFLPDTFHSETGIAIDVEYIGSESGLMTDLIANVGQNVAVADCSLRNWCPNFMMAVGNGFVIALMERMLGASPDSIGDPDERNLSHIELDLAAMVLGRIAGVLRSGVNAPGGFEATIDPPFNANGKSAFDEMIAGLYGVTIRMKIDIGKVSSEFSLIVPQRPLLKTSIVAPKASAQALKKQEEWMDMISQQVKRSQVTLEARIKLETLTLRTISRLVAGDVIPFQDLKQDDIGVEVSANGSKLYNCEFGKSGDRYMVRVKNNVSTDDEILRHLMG
As to the kind of experiment: pull-down; GST-FliM on glutathione-Sepharose 4B beads, crude extract of CheY-6×his in PBS with MgCl2 and without acetyl phosphate (non-phosphorylating conditions), 4 °C, 1 h; Western blot with anti-6×his antibody; only the target purified. (Immunoblotting shows a protein as a band on a membrane.)

In experiment [2] the target is T2, CheA-linker-Cegfp fusion protein (Agrobacterium fabrum C58) (UniProt A9CK76).
T2 sequence: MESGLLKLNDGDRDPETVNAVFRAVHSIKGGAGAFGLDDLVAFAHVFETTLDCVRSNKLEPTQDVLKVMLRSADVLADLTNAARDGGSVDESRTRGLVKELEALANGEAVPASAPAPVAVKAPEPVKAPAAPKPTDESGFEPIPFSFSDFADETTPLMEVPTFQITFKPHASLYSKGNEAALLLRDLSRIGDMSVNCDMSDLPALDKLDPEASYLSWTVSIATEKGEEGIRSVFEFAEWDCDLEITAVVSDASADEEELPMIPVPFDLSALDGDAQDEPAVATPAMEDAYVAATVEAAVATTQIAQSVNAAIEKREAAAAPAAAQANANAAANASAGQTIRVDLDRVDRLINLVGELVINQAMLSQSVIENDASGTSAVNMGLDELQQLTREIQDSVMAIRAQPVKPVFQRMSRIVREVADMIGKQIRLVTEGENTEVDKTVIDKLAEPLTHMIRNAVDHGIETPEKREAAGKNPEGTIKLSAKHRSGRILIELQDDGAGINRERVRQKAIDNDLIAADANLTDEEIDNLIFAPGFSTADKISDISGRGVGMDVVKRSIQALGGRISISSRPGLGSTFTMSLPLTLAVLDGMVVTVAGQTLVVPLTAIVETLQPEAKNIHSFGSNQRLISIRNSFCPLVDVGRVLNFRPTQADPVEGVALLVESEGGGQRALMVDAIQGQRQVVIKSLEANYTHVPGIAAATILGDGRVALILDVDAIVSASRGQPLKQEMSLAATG
The experiment is described as follows: split reporter; split eGFP of CheA-Cegfp with one CheY-Negfp fusion, with the other CheY co-expressed in native form from the same plasmid; confocal microscopy of polar fluorescence.

Experiment [3] addresses T2, CheA-linker-Cegfp fusion protein (Agrobacterium fabrum C58). The experiment is described as follows: split reporter; split eGFP; both fusions expressed from one plasmid under the lacZ promoter in A. fabrum deletion mutants (Δay; also Δays lacking CheS); confocal microscopy of polar fluorescence.

On to “CheY1-6×his fusion protein (non-phosphorylating conditions) (Agrobacterium fabrum C58)”, for which, in experiment [1], the binding entry is reported as “binds weakly”.
As to native CheY2 (Agrobacterium fabrum C58), the binding entry in experiment [2] is given as “binds”.
In the case of “CheY1-linker-Negfp fusion protein (from UniProt Q7D1A8)”, the binding result in experiment [2] and in experiment [3] was “binds” throughout.
For the substance “CheY2-Negfp fusion protein (from UniProt Q7D1A5)”, the binding result in experiment [2] and in experiment [3] was “binds” each time.
For “CheY2-6×his fusion protein (non-phosphorylating conditions) (Agrobacterium fabrum C58)”, the binding entry in experiment [1] was “binds weakly”.
For the substance “CheW1-Negfp fusion protein (Agrobacterium fabrum C58)”, in experiment [3], the binding result is listed as “binds”.
